This assay deals with T1, human IL-6 (human, UniProt P05231 30-212).
T1 construct: recombinant, bought (Peprotech 200-06; R&D Systems 206-IL/CF); biotinylated in the ELISAs; also called hIL-6; rhIL-6
The experiment in a line: ELISA, captured Z-ABD, biotin-hIL-6 titrated.

The chains behind the UniProt entries cited, without tags or fusion partners. Residues count along the entry.
UniProt P05231, 30-212 limits assumed: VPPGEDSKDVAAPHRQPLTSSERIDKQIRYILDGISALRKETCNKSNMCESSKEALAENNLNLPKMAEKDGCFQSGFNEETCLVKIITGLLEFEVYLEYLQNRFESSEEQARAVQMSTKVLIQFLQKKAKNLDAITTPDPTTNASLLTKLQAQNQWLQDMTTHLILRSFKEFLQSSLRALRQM

B1: Z11814 (designed binder)
chain: AQHDEALEVDAKYAKEEAKAWREIHILPNLTVQQMAAFISKLFDDPSQSSELLSEAKKLNDSQAPKVDYVLAEAKVLANRELDKYGVSDYYKNLINNAKTVEGVKALIDEILAALPYVPG
notes: domain: GA3; periplasmic ABD fusion
B1 gave an EC50 of 0.25 nM.

B2: Z11883 (designed binder)
chain: AQHDEALEVDAKYAKEERDAWYEIHLLPNLTISQMAAFISKLFDDPSQSSELLSEAKKLNDSQAPKVDYVLAEAKVLANRELDKYGVSDYYKNLINNAKTVEGVKALIDEILAALPYVPG
notes: as for B1
As to B2, the response was half-maximal at 0.21 nM (EC50).

B3: Z11871 (designed binder)
chain: AQHDEALEVDAKYAKEERVAWYEIHLLPNLTVRQMAAFISKLFDDPSQSSELLSEAKKLNDSQAPKVDYVLAEAKVLANRELDKYGVSDYYKNLINNAKTVEGVKALIDEILAALPYVPG
notes: as for B1
With B3, the response was half-maximal at 0.17 nM (EC50).

B4: Z11872 (designed binder)
chain: AQHDEALEVDAKYAKEEHHAWYEIHILPNLTVSQIAAFISKLFDDPSQSSELLSEAKKLNDSQAPKVDYVLAEAKVLANRELDKYGVSDYYKNLINNAKTVEGVKALIDEILAALPYVPG
notes: as for B1
Take B4: a half-maximal effect (EC50) was put at 0.28 nM.

B5: Z11893 (designed binder)
chain: AQHDEALEVDAKYAKEEARAWHEIHVLPNLTVSQMAAFIQKLFDDPSQSSELLSEAKKLNDSQAPKVDYVLAEAKVLANRELDKYGVSDYYKNLINNAKTVEGVKALIDEILAALPYVPG
notes: as for B1
B5: the 50% effective concentration (EC50) was 0.2 nM.

B6: Z11896 (designed binder)
chain: AQHDEALEVDAKYAKEERSAWWEIHTLPNLTVTQMAAFISKLFDDPSQSSELLSEAKKLNDSQAPKVDYVLAEAKVLANRELDKYGVSDYYKNLINNAKTVEGVKALIDEILAALPYVPG
notes: as for B1
In turn, B6 yielded an EC50 of 0.29 nM.

B7: Z11874 (designed binder)
chain: AQHDEALEVDAKYAKEERAAWFEIHALPNLTVEQVAAFIIKLFDDPSQSSELLSEAKKLNDSQAPKVDYVLAEAKVLANRELDKYGVSDYYKNLINNAKTVEGVKALIDEILAALPYVPG
notes: as for B1
Consider B7, for which the EC50 came to 0.31 nM.

B8: Z11890 (designed binder)
chain: AQHDEALEVDAKYAKEEREAWHEIHILPNLTVEQIAAFISKLFDDPSQSSELLSEAKKLNDSQAPKVDYVLAEAKVLANRELDKYGVSDYYKNLINNAKTVEGVKALIDEILAALPYVPG
notes: as for B1
Turning to B8, the midpoint of the response, the EC50, lay at 0.19 nM.

B9: Z11882 (designed binder)
chain: AQHDEALEVDAKYAKEERDAWYEIHLLPNLTVTQMAAFISKLFDDPSQSSELLSEAKKLNDSQAPKVDYVLAEAKVLANRELDKYGVSDYYKNLINNAKTVEGVKALIDEILAALPYVPG
notes: as for B1
As for B9, the 50% effective concentration (EC50) stood at 0.14 nM.

B10: Z11823 (designed binder)
chain: AQHDEALEVDAKYAKEERKAWFEIHALPNLTVSQMAAFISKLFDDPSQSSELLSEAKKLNDSQAPKVDYVLAEAKVLANRELDKYGVSDYYKNLINNAKTVEGVKALIDEILAALPYVPG
notes: as for B1
In turn, B10 gave an EC50 of 0.21 nM.

B11: Z11905 (designed binder)
chain: AQHDEALEVDAKYAKEERDAWYEIHLLPNLTVHQIAAFISKLFDDPSQSSELLSEAKKLNDSQAPKVDYVLAEAKVLANRELDKYGVSDYYKNLINNAKTVEGVKALIDEILAALPYVPG
notes: as for B1
Molecule B11 returned a 50% effective concentration (EC50) of 0.31 nM.

B12: Z11903 (designed binder)
chain: AQHDEALEVDAKYAKEERAAWYEIHSLPNLTVDQMAAFISKLFDDPSQSSELLSEAKKLNDSQAPKVDYVLAEAKVLANRELDKYGVSDYYKNLINNAKTVEGVKALIDEILAALPYVPG
notes: as for B1
Turning to B12, the EC50 is 0.23 nM.

B13: Z11833 (designed binder)
chain: AQHDEALEVDAKYAKEERAAWYEIHILPNLTVQQMAAFIQKLFDDPSQSSELLSEAKKLNDSQAPKVDYVLAEAKVLANRELDKYGVSDYYKNLINNAKTVEGVKALIDEILAALPYVPG
notes: as for B1
Regarding B13, the EC50 turned out to be 0.29 nM.

B14: Z11875 (designed binder)
chain: AQHDEALEVDAKYAKEEQEAWYEIHVLPNLTVTQMAAFISKLFDDPSQSSELLSEAKKLNDSQAPKVDYVLAEAKVLANRELDKYGVSDYYKNLINNAKTVEGVKALIDEILAALPYVPG
notes: as for B1
Regarding B14, a half-maximal response (EC50) required 0.21 nM.

B15: Z11819 (designed binder)
chain: AQHDEALEVDAKYAKEERTAWYEIHLLPNLTVTQMAAFISKLFDDPSQSSELLSEAKKLNDSQAPKVDYVLAEAKVLANRELDKYGVSDYYKNLINNAKTVEGVKALIDEILAALPYVPG
notes: as for B1
The molecule B15 returned an EC50 of 0.25 nM.

B16: Z11818 (designed binder)
chain: AQHDEALEVDAKYAKEERAAWFEIHTLPNLTVQQMAAFISKLFDDPSQSSELLSEAKKLNDSQAPKVDYVLAEAKVLANRELDKYGVSDYYKNLINNAKTVEGVKALIDEILAALPYVPG
notes: as for B1
The molecule B16 showed an EC50 of 0.24 nM.

B17: Z11881 (designed binder)
chain: AQHDEALEVDAKYAKEEQQAWTEIHTLPNLTVDQMAAFISKLFDDPSQSSELLSEAKKLNDSQAPKVDYVLAEAKVLANRELDKYGVSDYYKNLINNAKTVEGVKALIDEILAALPYVPG
notes: as for B1
Turning to B17, the half-maximal effective concentration (EC50) was found to be 0.17 nM.

B18: Z11866 (designed binder)
chain: AQHDEALEVDAKYAKEEAAAWYEIHLLPNLTISQIAAFISKLFDDPSQSSELLSEAKKLNDSQAPKVDYVLAEAKVLANRELDKYGVSDYYKNLINNAKTVEGVKALIDEILAALPYVPG
notes: as for B1
B18: a half-maximal response (EC50) required 0.25 nM.

B19: Z11817 (designed binder)
chain: AQHDEALEVDAKYAKEERSAWYEIHLLPNLTVTQMAAFISKLFDDPSQSSELLSEAKKLNDSQAPKVDYVLAEAKVLANRELDKYGVSDYYKNLINNAKTVEGVKALIDEILAALPYVPG
notes: as for B1
On to B19, for which the EC50 was 0.25 nM.

B20: Z11901 (designed binder)
chain: AQHDEALEVDAKYAKEEAEAWYEIHLLPNLTVDQMAAFIIKLFDDPSQSSELLSEAKKLNDSQAPKVDYVLAEAKVLANRELDKYGVSDYYKNLINNAKTVEGVKALIDEILAALPYVPG
notes: as for B1
Regarding B20, the 50% effective concentration (EC50) worked out at 0.17 nM.

B21: Z11904 (designed binder)
chain: AQHDEALEVDAKYAKEEQQAWLEIHLLPNLTIEQMAAFISKLFDDPSQSSELLSEAKKLNDSQAPKVDYVLAEAKVLANRELDKYGVSDYYKNLINNAKTVEGVKALIDEILAALPYVPG
notes: as for B1
On to B21, for which the response was half-maximal at 0.24 nM (EC50).

B22: Z11865 (designed binder)
chain: AQHDEALEVDAKYAKEERDAWYEIHLLPNLTVEQMAAFISKLFDDPSQSSELLSEAKKLNDSQAPKVDYVLAEAKVLANRELDKYGVSDYYKNLINNAKTVEGVKALIDEILAALPYVPG
notes: as for B1
Molecule B22 displayed an EC50 of 0.23 nM.

B23: Z11906 (designed binder)
chain: AQHDEALEVDAKYAKEERDAWYEIHTLPNLTVEQMAAFIWKLFDDPSQSSELLSEAKKLNDSQAPKVDYVLAEAKVLANRELDKYGVSDYYKNLINNAKTVEGVKALIDEILAALPYVPG
notes: as for B1
As to B23, the midpoint of the response, the EC50, lay at 0.25 nM.

B24: Z11861 (designed binder)
chain: AQHDEALEVDAKYAKEEAQAWLEIHLLPNLTVDQIAAFISKLFDDPSQSSELLSEAKKLNDSQAPKVDYVLAEAKVLANRELDKYGVSDYYKNLINNAKTVEGVKALIDEILAALPYVPG
notes: as for B1
Molecule B24 returned an EC50 of 0.22 nM.

B25: Z11815 (designed binder)
chain: AQHDEALEVDAKYAKEEATAWHEIHTLPNLTVHQMAAFISKLFDDPSQSSELLSEAKKLNDSQAPKVDYVLAEAKVLANRELDKYGVSDYYKNLINNAKTVEGVKALIDEILAALPYVPG
notes: as for B1
Take B25: it took 0.28 nM to reach a half-maximal effect (EC50).

B26: Z11862 (designed binder)
chain: AQHDEALEVDAKYAKEERKAWFEIHALPNLTVTQMAAFISKLFDDPSQSSELLSEAKKLNDSQAPKVDYVLAEAKVLANRELDKYGVSDYYKNLINNAKTVEGVKALIDEILAALPYVPG
notes: as for B1
Molecule B26 displayed a 50% effective concentration (EC50) of 0.19 nM.

B27: Z11835 (designed binder)
chain: AQHDEALEVDAKYAKEERQAWYEIHLLPNLTVSQIAAFISKLFDDPSQSSELLSEAKKLNDSQAPKVDYVLAEAKVLANRELDKYGVSDYYKNLINNAKTVEGVKALIDEILAALPYVPG
notes: as for B1
B27 displayed a concentration for a half-maximal effect (EC50) of 0.29 nM.

B28: Z11824 (designed binder)
chain: AQHDEALEVDAKYAKEEHRAWFEIHLLPNLTVEQMAAFISKLFDDPSQSSELLSEAKKLNDSQAPKVDYVLAEAKVLANRELDKYGVSDYYKNLINNAKTVEGVKALIDEILAALPYVPG
notes: as for B1
The molecule B28 gave a concentration for a half-maximal effect (EC50) of 0.23 nM.

B29: Z11892 (designed binder)
chain: AQHDEALEVDAKYAKEERDAWWEIHALPNLTVDQMAAFISKLFDDPSQSSELLSEAKKLNDSQAPKVDYVLAEAKVLANRELDKYGVSDYYKNLINNAKTVEGVKALIDEILAALPYVPG
notes: as for B1
As for B29, the EC50 came to 0.23 nM.

B30: Z11836 (designed binder)
chain: AQHDEALEVDAKYAKEEAAAWREIHLLPNLTVQQMAAFISKLFDDPSQSSELLSEAKKLNDSQAPKVDYVLAEAKVLANRELDKYGVSDYYKNLINNAKTVEGVKALIDEILAALPYVPG
notes: as for B1
B30: it took 0.36 nM to reach a half-maximal effect (EC50).

B31: Z11897 (designed binder)
chain: AQHDEALEVDAKYAKEEADAWWEIHALPNLTIDQMAAFISKLFDDPSQSSELLSEAKKLNDSQAPKVDYVLAEAKVLANRELDKYGVSDYYKNLINNAKTVEGVKALIDEILAALPYVPG
notes: as for B1
In turn, B31 displayed an EC50 of 0.3 nM.

B32: Z11860 (designed binder)
chain: AQHDEALEVDAKYAKEEREAWHEIHILPNLTIHQMAAFISKLFDDPSQSSELLSEAKKLNDSQAPKVDYVLAEAKVLANRELDKYGVSDYYKNLINNAKTVEGVKALIDEILAALPYVPG
notes: as for B1
For the molecule B32, the midpoint of the response, the EC50, lay at 0.18 nM.

B33: Z11895 (designed binder)
chain: AQHDEALEVDAKYAKEEAQAWYEIHTLPNLTVEQMAAFIAKLFDDPSQSSELLSEAKKLNDSQAPKVDYVLAEAKVLANRELDKYGVSDYYKNLINNAKTVEGVKALIDEILAALPYVPG
notes: as for B1
As for B33, it took 0.28 nM to reach a half-maximal effect (EC50).

Values taken from patent US20170129926A1 (ABCLON, published 2017).
